This is one part of the list.
Assays:
Assay in all cases: log2 fold change, soluble protein after heating vs DMSO (PISA); higher = thermal stabilisation; K562 cells, 10 uM, 30 min; active = over 0.2 and 3.5 SD of the protein, either way, in both replicates (recomputed)
[1] = compound: CC[C@@H]1C(=O)N(C)c2cnc(Nc3ccc(C(=O)NC4CCN(C)CC4)cc3OC)nc2N1C1CCCC1
How it was run: (§1)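 Soluble protein was quantified by TMTpro 16plex LC-MS/MS after channel sums were equalised. It was obtained as the supernatant after 21,000xg for 90 min from pooled aliquots of K562 cells (2×10^6 cells/mL, 10 μM compound, 30 min) heated for 3 min across 48°C-58°C and extracted in PBS with 0.5% NP-40 at 4°C. Thermal stability values are relative to control samples and come from duplicates. They are given as log2 fold changes.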

Chains of the proteins cited; added tags and fusions are not shown. Lines headed by an entry give the natural chain unless they say otherwise; changes in a name come on top.
UniProt Q969Y2: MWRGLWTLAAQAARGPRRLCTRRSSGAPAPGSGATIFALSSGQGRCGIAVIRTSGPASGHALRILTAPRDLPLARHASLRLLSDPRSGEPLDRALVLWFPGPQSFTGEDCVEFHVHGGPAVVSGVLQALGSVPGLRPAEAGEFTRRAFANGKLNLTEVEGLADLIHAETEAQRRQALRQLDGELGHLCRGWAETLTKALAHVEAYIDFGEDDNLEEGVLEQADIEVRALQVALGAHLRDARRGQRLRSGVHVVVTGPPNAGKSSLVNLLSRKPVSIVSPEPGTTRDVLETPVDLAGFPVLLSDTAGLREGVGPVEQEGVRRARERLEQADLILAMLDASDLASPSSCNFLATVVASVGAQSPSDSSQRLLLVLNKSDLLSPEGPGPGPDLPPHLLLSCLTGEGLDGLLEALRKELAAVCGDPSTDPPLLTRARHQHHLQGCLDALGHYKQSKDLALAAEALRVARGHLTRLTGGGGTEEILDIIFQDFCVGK
UniProt P56524: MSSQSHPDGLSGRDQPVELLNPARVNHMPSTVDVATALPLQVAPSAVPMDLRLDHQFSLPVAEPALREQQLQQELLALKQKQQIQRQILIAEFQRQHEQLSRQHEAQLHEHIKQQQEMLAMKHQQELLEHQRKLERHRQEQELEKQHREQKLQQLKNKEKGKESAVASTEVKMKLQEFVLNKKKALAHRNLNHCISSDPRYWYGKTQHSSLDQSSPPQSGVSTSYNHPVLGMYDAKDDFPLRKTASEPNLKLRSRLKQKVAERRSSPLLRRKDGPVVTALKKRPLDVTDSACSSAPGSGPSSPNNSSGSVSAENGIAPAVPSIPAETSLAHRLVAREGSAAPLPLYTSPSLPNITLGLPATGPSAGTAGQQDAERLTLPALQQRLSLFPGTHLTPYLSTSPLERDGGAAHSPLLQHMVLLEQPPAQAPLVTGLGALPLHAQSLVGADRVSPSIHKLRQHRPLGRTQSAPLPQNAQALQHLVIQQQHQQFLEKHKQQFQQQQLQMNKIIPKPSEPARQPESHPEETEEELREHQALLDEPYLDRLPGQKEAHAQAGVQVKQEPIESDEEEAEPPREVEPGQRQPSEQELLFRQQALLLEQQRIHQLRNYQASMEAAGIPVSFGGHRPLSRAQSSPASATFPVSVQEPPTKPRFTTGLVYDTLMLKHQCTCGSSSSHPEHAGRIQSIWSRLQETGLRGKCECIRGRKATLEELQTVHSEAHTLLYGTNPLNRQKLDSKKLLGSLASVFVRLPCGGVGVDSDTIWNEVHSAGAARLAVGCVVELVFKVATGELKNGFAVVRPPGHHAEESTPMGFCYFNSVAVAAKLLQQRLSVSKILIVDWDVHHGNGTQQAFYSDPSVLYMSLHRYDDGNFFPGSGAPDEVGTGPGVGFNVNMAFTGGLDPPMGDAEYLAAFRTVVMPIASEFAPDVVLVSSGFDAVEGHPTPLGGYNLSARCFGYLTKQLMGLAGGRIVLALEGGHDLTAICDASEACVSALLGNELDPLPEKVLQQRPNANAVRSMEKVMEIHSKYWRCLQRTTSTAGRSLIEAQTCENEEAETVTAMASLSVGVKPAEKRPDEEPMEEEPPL
UniProt Q9P035: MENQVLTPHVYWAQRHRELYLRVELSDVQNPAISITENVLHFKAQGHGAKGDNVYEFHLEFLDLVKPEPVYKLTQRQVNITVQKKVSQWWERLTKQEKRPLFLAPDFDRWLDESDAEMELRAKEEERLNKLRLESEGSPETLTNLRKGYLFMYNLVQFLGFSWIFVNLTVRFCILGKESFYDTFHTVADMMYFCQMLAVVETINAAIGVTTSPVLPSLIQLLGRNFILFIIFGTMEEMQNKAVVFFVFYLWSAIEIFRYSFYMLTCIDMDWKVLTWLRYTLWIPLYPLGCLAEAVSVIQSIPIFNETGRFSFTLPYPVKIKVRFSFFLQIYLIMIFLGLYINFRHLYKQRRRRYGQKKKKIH
UniProt Q6AI08: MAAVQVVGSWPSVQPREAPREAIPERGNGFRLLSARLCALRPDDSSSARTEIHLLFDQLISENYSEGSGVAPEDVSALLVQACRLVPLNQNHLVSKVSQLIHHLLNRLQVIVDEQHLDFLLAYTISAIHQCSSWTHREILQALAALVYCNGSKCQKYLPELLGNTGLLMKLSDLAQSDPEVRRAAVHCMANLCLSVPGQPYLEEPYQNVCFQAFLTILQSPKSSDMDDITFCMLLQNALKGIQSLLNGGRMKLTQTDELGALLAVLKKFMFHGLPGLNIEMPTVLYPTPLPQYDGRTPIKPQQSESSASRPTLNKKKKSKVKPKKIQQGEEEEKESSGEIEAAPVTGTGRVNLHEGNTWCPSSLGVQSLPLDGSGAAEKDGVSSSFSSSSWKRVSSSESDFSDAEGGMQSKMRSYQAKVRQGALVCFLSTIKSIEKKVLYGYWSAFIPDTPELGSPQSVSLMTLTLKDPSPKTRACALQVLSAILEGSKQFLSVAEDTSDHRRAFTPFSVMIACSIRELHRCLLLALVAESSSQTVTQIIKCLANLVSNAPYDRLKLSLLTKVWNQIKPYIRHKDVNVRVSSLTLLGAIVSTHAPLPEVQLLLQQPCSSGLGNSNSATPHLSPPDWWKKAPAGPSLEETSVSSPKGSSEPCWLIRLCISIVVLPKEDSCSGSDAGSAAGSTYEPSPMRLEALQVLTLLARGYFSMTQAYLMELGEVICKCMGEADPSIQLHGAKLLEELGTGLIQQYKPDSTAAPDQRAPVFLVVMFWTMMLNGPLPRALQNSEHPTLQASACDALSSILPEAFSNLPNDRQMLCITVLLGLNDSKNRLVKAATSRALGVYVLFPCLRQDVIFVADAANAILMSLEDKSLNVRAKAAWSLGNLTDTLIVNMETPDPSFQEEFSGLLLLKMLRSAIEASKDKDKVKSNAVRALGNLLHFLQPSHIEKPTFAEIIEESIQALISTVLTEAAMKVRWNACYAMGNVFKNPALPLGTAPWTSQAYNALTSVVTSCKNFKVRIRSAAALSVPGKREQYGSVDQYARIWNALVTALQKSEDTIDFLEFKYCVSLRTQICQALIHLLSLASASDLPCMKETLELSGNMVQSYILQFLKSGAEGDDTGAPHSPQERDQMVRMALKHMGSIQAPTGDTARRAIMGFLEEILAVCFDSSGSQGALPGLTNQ
UniProt Q5T447: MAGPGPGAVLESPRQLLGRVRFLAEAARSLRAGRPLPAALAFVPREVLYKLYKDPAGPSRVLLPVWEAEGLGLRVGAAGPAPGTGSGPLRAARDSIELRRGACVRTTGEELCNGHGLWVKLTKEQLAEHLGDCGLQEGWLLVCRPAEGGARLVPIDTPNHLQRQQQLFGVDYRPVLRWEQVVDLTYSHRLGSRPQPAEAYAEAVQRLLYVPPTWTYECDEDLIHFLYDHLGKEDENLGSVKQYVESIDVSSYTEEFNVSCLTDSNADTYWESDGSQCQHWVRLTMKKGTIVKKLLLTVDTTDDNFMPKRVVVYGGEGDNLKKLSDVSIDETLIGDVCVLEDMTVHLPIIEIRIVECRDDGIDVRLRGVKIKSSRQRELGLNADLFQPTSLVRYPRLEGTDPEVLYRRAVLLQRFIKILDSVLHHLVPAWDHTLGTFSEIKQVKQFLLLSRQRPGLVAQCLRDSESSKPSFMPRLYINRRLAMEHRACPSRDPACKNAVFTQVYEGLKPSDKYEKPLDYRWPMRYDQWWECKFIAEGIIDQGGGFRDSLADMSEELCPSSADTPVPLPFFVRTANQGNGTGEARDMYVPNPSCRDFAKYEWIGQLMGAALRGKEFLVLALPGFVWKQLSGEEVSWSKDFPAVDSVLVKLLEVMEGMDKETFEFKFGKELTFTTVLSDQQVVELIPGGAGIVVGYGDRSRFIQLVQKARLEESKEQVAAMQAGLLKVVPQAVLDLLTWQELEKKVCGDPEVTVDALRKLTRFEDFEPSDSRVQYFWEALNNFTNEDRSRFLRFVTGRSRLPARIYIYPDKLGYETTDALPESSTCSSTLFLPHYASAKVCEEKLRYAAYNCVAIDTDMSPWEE
UniProt Q4G148: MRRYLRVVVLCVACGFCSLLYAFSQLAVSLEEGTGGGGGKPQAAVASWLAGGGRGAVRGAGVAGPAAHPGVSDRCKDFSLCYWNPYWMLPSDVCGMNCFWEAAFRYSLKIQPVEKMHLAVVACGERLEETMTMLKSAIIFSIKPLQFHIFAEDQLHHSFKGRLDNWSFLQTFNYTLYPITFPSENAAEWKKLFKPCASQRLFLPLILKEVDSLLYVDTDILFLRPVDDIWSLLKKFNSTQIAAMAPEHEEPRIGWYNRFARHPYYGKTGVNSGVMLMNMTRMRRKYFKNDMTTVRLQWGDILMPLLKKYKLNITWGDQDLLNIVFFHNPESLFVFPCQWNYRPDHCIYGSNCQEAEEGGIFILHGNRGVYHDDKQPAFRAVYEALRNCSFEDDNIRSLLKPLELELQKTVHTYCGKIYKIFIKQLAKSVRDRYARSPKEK
UniProt Q92769, whole entry, looked up: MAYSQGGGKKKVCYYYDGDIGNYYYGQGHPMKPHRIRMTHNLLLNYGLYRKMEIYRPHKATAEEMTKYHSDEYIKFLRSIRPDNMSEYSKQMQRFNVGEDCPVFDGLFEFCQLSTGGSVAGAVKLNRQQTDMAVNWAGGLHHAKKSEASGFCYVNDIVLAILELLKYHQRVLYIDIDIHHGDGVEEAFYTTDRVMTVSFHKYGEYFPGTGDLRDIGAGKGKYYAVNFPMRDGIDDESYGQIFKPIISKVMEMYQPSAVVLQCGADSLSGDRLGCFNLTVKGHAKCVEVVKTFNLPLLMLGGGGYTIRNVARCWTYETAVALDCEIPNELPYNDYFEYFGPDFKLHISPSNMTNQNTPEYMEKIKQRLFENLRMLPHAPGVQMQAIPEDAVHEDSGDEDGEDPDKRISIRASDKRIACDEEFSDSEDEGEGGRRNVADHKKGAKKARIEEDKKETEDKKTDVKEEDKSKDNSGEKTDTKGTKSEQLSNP
UniProt P06396, whole entry, looked up: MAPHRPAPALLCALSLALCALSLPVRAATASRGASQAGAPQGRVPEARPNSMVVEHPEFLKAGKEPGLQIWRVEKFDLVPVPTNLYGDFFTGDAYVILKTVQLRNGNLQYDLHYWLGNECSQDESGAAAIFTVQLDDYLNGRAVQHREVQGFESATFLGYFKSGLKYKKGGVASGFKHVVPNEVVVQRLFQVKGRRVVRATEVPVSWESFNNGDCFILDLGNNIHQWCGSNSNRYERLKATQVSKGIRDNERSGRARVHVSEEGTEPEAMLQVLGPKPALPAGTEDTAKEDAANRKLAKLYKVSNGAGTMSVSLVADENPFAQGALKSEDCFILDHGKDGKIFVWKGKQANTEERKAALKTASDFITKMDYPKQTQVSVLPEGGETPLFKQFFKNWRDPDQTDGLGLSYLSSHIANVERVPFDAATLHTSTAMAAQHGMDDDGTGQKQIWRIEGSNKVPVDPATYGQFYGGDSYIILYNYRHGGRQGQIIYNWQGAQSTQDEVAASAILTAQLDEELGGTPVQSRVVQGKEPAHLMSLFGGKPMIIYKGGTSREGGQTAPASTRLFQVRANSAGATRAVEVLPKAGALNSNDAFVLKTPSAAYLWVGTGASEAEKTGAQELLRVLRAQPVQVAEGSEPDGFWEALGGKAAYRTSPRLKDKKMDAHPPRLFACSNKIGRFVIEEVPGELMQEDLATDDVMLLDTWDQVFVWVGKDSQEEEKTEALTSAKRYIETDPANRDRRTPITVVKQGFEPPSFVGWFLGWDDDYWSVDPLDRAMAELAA
UniProt O95479: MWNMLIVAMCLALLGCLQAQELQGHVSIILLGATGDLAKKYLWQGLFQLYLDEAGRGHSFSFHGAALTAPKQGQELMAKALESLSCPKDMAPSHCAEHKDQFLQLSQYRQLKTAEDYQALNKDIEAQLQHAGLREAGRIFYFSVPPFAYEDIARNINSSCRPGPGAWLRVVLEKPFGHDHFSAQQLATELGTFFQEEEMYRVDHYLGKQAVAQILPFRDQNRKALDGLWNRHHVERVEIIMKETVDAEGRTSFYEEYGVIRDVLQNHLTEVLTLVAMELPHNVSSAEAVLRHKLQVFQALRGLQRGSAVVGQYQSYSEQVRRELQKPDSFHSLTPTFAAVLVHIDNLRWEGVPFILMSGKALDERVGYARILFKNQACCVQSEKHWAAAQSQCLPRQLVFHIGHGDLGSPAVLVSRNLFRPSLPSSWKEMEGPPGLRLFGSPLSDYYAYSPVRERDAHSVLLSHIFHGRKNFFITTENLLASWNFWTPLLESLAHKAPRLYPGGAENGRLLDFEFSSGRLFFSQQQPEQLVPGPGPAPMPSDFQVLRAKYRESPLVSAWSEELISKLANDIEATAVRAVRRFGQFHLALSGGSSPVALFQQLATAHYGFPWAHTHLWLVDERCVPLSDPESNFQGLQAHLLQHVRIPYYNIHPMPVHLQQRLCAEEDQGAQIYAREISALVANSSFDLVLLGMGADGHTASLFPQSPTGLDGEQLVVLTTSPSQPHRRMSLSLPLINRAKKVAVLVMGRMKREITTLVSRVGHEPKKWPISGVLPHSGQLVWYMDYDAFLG

volasertib = compound: CC[C@@H]1C(=O)N(C)c2cnc(Nc3ccc(C(=O)N[C@H]4CC[C@H](N5CCN(CC6CC6)CC5)CC4)cc3OC)nc2N1C(C)C [volasertib]
How it was run: as §1

[2] = compound: CC[C@H](C)N1C=C(C2=C(C=C(C=C21)C3=CN=C(C=C3)N4CCNCC4)C(=O)NCC5=C(C=C(NC5=O)C)C)C
How it was run: as §1

epoxomicin = compound: CC[C@H](C)[C@@H](C(=O)N[C@@H]([C@@H](C)O)C(=O)N[C@@H](CC(C)C)C(=O)[C@]1(CO1)C)NC(=O)[C@H]([C@@H](C)CC)N(C)C(=O)C [epoxomicin]
How it was run: as §1

[3] = compound: CCn1c(C(=O)N(C2CC2)C2CC2)cc2c3c(ncn3C)c(Nc3cc(C)n(C)n3)nc21
How it was run: as §1

[4] = compound: CN(C)CC(=O)Nc1ccc2[nH]c(=O)c3ccccc3c2c1
How it was run: as §1

rosiglitazone = compound: CN(CCOC1=CC=C(C=C1)C[C@H]2C(=O)NC(=O)S2)C3=CC=CC=N3 (racemic) [rosiglitazone]
How it was run: as §1

sotrastaurin = compound: CN1CCN(c2nc(C3=C(c4c[nH]c5ccccc45)C(=O)NC3=O)c3ccccc3n2)CC1 [sotrastaurin]
How it was run: as §1

alvocidib = compound: CN1CC[C@H](c2c(O)cc(O)c3c(=O)cc(-c4ccccc4Cl)oc23)[C@H](O)C1 [alvocidib]
How it was run: as §1

Tubastatin A = compound: CN1CCc2c(c3ccccc3n2Cc2ccc(C(=O)NO)cc2)C1 [Tubastatin A]
How it was run: as §1

[5] = compound: CNC(=O)C1=CC=CC=C1NC2=NC(=NC=C2Cl)NC3=C(C=C(C=C3)N4CCOCC4)OC
How it was run: as §1

defactinib = compound: CNC(=O)c1ccc(Nc2ncc(C(F)(F)F)c(NCc3nccnc3N(C)S(C)(=O)=O)n2)cc1 [defactinib]
How it was run: as §1

rucaparib = compound: CNCc1ccc(-c2[nH]c3cc(F)cc4c3c2CCNC4=O)cc1 [rucaparib]
How it was run: as §1

encorafenib = compound: COC(=O)N[C@@H](C)CNc1nccc(-c2cn(C(C)C)nc2-c2cc(Cl)cc(NS(C)(=O)=O)c2F)n1 [encorafenib]
How it was run: as §1

[6] = compound: COC(=O)[C@H](CCSC)NC(=O)C1=C(C=C(C=C1)NC[C@H](CS)N)C2=CC=CC=C2
How it was run: as §1

[7] = compound: CCn1cc(-c2ccnc3[nH]c(-c4cccc(CN(C)C)c4)cc23)c(-c2ccc(NC(=O)N(C)C)cc2)n1
How it was run: as §1

[8] = compound: CN1C2=C(C3=C1C(=O)N(N=C3)CC4=CC(=CC=C4)N)SC(=C2)S(=O)C
How it was run: as §1

[9] = compound: CN1CCC(CNc2ccc3ncc(-c4cccc(OC(F)(F)F)c4)n3n2)CC1
How it was run: as §1

saracatinib = compound: CN1CCN(CCOc2cc(OC3CCOCC3)c3c(Nc4c(Cl)ccc5c4OCO5)ncnc3c2)CC1 [saracatinib]
How it was run: as §1

[10] = compound: CNc1nc(-c2ccc3c(N)n[nH]c3c2)cc(N2C[C@@H](C(=O)NC3CCCCC3)CC[C@H]2C)n1
How it was run: as §1

Measured: log2 fold change

GSTCD (UniProt Q8NEC7)
inactive: [1] 0.005 | volasertib -0.11 | [2] 0.037 | epoxomicin -0.036 | [3] -0.039 | [4] 0.054 | rosiglitazone 0.042 | sotrastaurin 0.012 | alvocidib -0.082 | Tubastatin A -0.035 | [5] -0.046 | defactinib -0.256 | rucaparib -0.004 | encorafenib 0.012 | [6] -0.023

GTPBP3 isoform 2 (UniProt Q969Y2)
inactive: [1] 0.075 | volasertib -0.015 | [2] -0.021 | epoxomicin 0.015 | [3] -0.063 | [7] 0.02 | [4] 0.002 | rosiglitazone 0.024 | [8] -0.059 | [9] -0.002 | saracatinib 0.016 | sotrastaurin -0.01 | alvocidib -0.016 | Tubastatin A -0.066 | [5] -0.034 | defactinib -0.028 | rucaparib -0.001 | [10] -0.075 | encorafenib -0.061 | [6] 0.029

HDAC4 (UniProt P56524)
inactive: [1] -0.089 | volasertib -0.072 | [2] 0 | epoxomicin -0.033 | [3] 0.06 | [7] -0.079 | [4] -0.038 | rosiglitazone 0.045 | [9] -0.082 | sotrastaurin -0.028 | alvocidib 0.11 | Tubastatin A 0.23 | [5] -0.222 | defactinib -0.041 | rucaparib 0.03 | encorafenib -0.133 | [6] 0.104

HACD3 (UniProt Q9P035)
inactive: [1] 0.01 | volasertib -0.028 | [2] -0.003 | epoxomicin -0.025 | [3] -0.03 | [7] -0.016 | [4] 0.005 | rosiglitazone 0.035 | [8] 0.003 | [9] 0.135 | saracatinib -0.003 | sotrastaurin 0.009 | alvocidib -0.016 | Tubastatin A -0.024 | [5] 0.012 | defactinib 0.01 | rucaparib -0.055 | [10] -0.004 | encorafenib 0.069 | [6] 0.001

HEATR6 (UniProt Q6AI08)
inactive: [1] -0.082 | volasertib -0.27 | [2] -0.006 | epoxomicin 0.08 | [3] -0.067 | [4] 0.075 | rosiglitazone -0.016 | [8] -0.027 | saracatinib -0.047 | sotrastaurin -0.161 | alvocidib -0.014 | Tubastatin A 0.023 | [5] -0.062 | defactinib 0.077 | rucaparib -0.047 | [10] -0.075 | encorafenib -0.039 | [6] -0.12

HECTD3 (UniProt Q5T447)
inactive: [1] -0.08 | volasertib 0.027 | [2] -0.004 | epoxomicin 0.006 | [3] 0.022 | [4] 0.021 | rosiglitazone 0.007 | [8] 0.03 | saracatinib -0.101 | sotrastaurin -0.026 | alvocidib 0.026 | Tubastatin A 0.02 | [5] -0.02 | defactinib 0.023 | rucaparib 0.077 | [10] -0.011 | encorafenib 0.069 | [6] 0

H1-2 (UniProt P16403)
inactive: [1] 0.165 | volasertib 0.475 | [2] -0.022 | epoxomicin -0.115 | [3] 0.006 | [7] 0.283 | [4] -0.108 | rosiglitazone -0.185 | [8] 0.307 | [9] 0.377 | saracatinib -0.236 | sotrastaurin -0.087 | alvocidib 0.36 | Tubastatin A 0.039 | [5] 0.023 | defactinib 0.323 | rucaparib 0.371 | [10] 0.124 | encorafenib 0.144 | [6] 0.009

GXYLT1 (UniProt Q4G148)
inactive: [1] 0.088 | volasertib -0.11 | [2] -0.026 | epoxomicin 0.09 | [3] 0.03 | [7] -0.318 | [4] -0.113 | rosiglitazone 0.163 | [8] -0.047 | [9] 0.074 | saracatinib 0.512 | alvocidib -0.007 | Tubastatin A -0.011 | [5] -0.02 | defactinib -0.044 | rucaparib 0.008 | [10] -0.208 | encorafenib 0.252 | [6] 0.121

Two records drawn at random from those above, as already listed:
HEATR6 (UniProt Q6AI08)
inactive: [1] -0.082 | volasertib -0.27 | [2] -0.006 | epoxomicin 0.08 | [3] -0.067 | [4] 0.075 | rosiglitazone -0.016 | [8] -0.027 | saracatinib -0.047 | sotrastaurin -0.161 | alvocidib -0.014 | Tubastatin A 0.023 | [5] -0.062 | defactinib 0.077 | rucaparib -0.047 | [10] -0.075 | encorafenib -0.039 | [6] -0.12

HACD3 (UniProt Q9P035)
inactive: [1] 0.01 | volasertib -0.028 | [2] -0.003 | epoxomicin -0.025 | [3] -0.03 | [7] -0.016 | [4] 0.005 | rosiglitazone 0.035 | [8] 0.003 | [9] 0.135 | saracatinib -0.003 | sotrastaurin 0.009 | alvocidib -0.016 | Tubastatin A -0.024 | [5] 0.012 | defactinib 0.01 | rucaparib -0.055 | [10] -0.004 | encorafenib 0.069 | [6] 0.001

Further entries:

HDAC2 (UniProt Q92769)
active: Tubastatin A 0.907
inactive: [1] 0.024 | volasertib -0.051 | [2] 0.026 | epoxomicin -0.049 | [7] -0.001 | [4] -0.003 | [8] -0.041 | [9] 0.056 | saracatinib -0.001 | sotrastaurin -0.02 | [5] -0.113 | defactinib -0.035 | rucaparib -0.006 | [10] -0.015 | encorafenib -0.046 | [6] -0.006

GSN (UniProt P06396)
inactive: [1] -0.026 | volasertib -0.011 | [2] -0.069 | epoxomicin -0.12 | [3] 0 | [7] -0.035 | [4] -0.092 | rosiglitazone 0.077 | [8] 0.112 | [9] -0.023 | saracatinib 0.006 | sotrastaurin 0.1 | alvocidib 0.041 | Tubastatin A -0.049 | [5] 0.005 | defactinib -0.01 | rucaparib -0.098 | [10] -0.044 | encorafenib -0.027 | [6] 0.083

GSPT2 (UniProt Q8IYD1)
inactive: [1] 0.019 | volasertib -0.007 | [2] -0.033 | epoxomicin 0.091 | [3] -0.03 | [7] 0.04 | [4] -0.039 | rosiglitazone -0.032 | [8] -0.058 | [9] 0.038 | saracatinib 0.147 | sotrastaurin -0.005 | alvocidib -0.307 | [5] 0.08 | defactinib 0.057 | rucaparib 0.02 | [10] 0.051 | encorafenib 0.045 | [6] -0.065

GTSF1 (UniProt Q8WW33)
inactive: [1] -0.053 | volasertib 0.092 | [2] 0 | epoxomicin 0.038 | [3] 0.05 | [7] -0.025 | [4] -0.04 | rosiglitazone -0.018 | [8] -0.067 | [9] -0.029 | saracatinib 0.046 | sotrastaurin 0.044 | alvocidib -0.032 | Tubastatin A -0.037 | [5] 0.031 | defactinib -0.005 | rucaparib -0.032 | [10] -0.033 | encorafenib 0.002 | [6] 0.03

HDDC2 (UniProt Q7Z4H3)
inactive: [1] 0.008 | volasertib 0.08 | [2] 0.014 | epoxomicin -0.006 | [7] -0.063 | [4] 0.025 | [8] -0.102 | [9] -0.066 | saracatinib 0.045 | sotrastaurin 0.042 | Tubastatin A 0.015 | [5] 0.007 | defactinib -0.014 | rucaparib -0.014 | [10] 0.063 | encorafenib 0.014 | [6] -0.013

H1FX (UniProt Q92522)
inactive: [1] 0.166 | volasertib 0.415 | [2] -0.003 | epoxomicin -0.201 | [7] 0.041 | [4] -0.115 | [8] 0.287 | [9] 0.129 | saracatinib -0.054 | sotrastaurin -0.237 | Tubastatin A 0.093 | [5] 0.041 | defactinib 0.336 | rucaparib 0.219 | [10] 0.102 | encorafenib 0.121 | [6] 0.013

GSTM2 (UniProt P28161)
inactive: [1] 0.059 | volasertib 0.039 | [2] 0.041 | epoxomicin 0.113 | [3] 0.021 | [7] -0.119 | [4] 0.038 | rosiglitazone 0.008 | [9] -0.081 | sotrastaurin -0.004 | alvocidib -0.002 | Tubastatin A 0.046 | [5] -0.003 | defactinib -0.002 | rucaparib -0.064 | encorafenib -0.021 | [6] 0.008

GTF3C6 (UniProt Q969F1)
inactive: [1] 0.061 | volasertib -0.146 | [2] 0.213 | epoxomicin -0.038 | [7] 0.272 | [4] -0.019 | rosiglitazone 0.047 | [8] 0.209 | [9] -0.311 | saracatinib 0.051 | sotrastaurin -0.003 | alvocidib 0.07 | Tubastatin A 0.068 | defactinib -0.103 | rucaparib 0.04 | [10] -0.05 | encorafenib -0.017 | [6] 0.007

H6PD (UniProt O95479)
inactive: [1] 0 | volasertib -0.15 | [2] 0.353 | epoxomicin -0.124 | [3] -0.159 | [7] 0.054 | [4] -0.222 | [8] 0.067 | [9] 0 | saracatinib 0.042 | sotrastaurin -0.039 | alvocidib -0.006 | Tubastatin A 0.087 | [5] -0.068 | defactinib 0.25 | rucaparib -0.118 | [10] -0.165 | encorafenib -0.048 | [6] -0.058
